# Patent US20120219952A1, “CARBAPENEMASE AND ANTIBACTERIAL TREATMENT” (priority 2009, published 2012)
# At least one structure is not confirmed: it was looked up by name or label, or the drawing left a doubt.
# Tested on: E. coli DH10B(pXD-1)
# Experiment: MICs by agar dilution technique
# Format: cell-based, Escherichia coli
# Details: 37° C., 18 h
# Method: MICs were determined by an agar dilution technique with Mueller-Hinton agar (Sanofi-Diagnostic Pasteur) with an inoculum of 10^4 CFU/ml, as described previously (Poirel, Le Thomas et al., 2000). All plates were incubated at 37° C. for 18 h at ambient atmosphere. MICs of β-lactams were determined alone or in combination with a fixed concentration of clavulanic acid (2 μg/ml), tazobactam (4 μg/ml), and sulbactam (4 μg/ml). MIC results were interpreted according to the guidelines of the National Committee for Clinical Laboratory Standards (NCCLS) (CLSI).
smiles,measurement,value
C[C@@H](O)[C@H]1C(=O)N2C(C(=O)O)=C(SCCN=CN)C[C@H]12 [imipenem],β-lactam susceptibility from MICs,reduced susceptibility
